The other results are listed elsewhere or left out.
B1: il2ra_site1_1z92_sap_23_mot_cda1634bf71a07e6bb6bfbc1e51fcdca_0001_af2_000000299_0001_1_14_H_._HHH_b1_07386_0001_0000300018_0000001_0_0001 (protein)
chain: SSSSDERLKKSLEIAVEAAVKLAGLSEEQKEELEELAEELAERGVDFLEAIKIVDRLAARLSSSS
B2: il2ra_site1_1z92_normal_mot_HHH_b1_00199_000000288_0001_44_57_H_._ems_p1-16H-GBL-16H-GABBL-15H_0053_0001_0001_0001_af2_0001_0000200005_0000001_0 (protein)
chain: SSSSSDRIEKLAEILEKFARLSGNEEALEVVEEALEAFRKGELDDEQVLELLEEALRLLHSSSSS
B3: il2ra_site2_3nfp_normal_mot_HHH_b2_05139_000000249_0001_1_19_H_._HHH_b1_07677_af2_0001_0000200018_0000001_0 (protein)
chain: SSSSSEEEIRFKAAVLAIELAEKGDEELLRKLNRVIYQLMFEGDPRLVEELEEVIEEIEKSSSSS
B4: il2ra_site1_2b5i_normal_mot_3116615af0ee64d731c1c85d8523bf51_0001_000000216_0001_15_32_H_._HHH_b1_02665_af2_0001_0000200015_0000001_0_af2pred_dldesign_0_af2pred (protein)
chain: SSSSSFRDLMEELAALLAEIAARGDDEAYEKAEELFDKAVKSNDKSILEEAIAYARARLAESSSS
B5: il2ra_site1_2b5i_normal_mot_306e237eb68499aa2c78cb84ccc46c3c_0001_000000068_0001_33_49_H_._HEEHE_1920_af2_0001_0000300023_0000001_0 (protein)
chain: DEEEALKIALERAAEAFNVPSVEVETHNGKVHIHIEGTDEKARSLSNFARQLAEKQGVDVEVEVE
B6: il2ra_site1_3nfp_normal_mot_HHH_b2_07409_000000012_0001_1_20_H_._baccb1425719751948be6dbafe1f343b_0001_0001_0000700059_0000001_0 (protein)
chain: SAEYLLEALLKDAGVPPEEIEEAKRLLKEAEERNAPPEELAELVREILEELGNPRLAELVRKLLK
B7: il2ra_site1_3nfp_normal_mot_HHH_b1_04221_000000040_0001_40_56_H_._HHH_b1_07229_0001_0000100003_0000001_0_af2pred_0001_1_af2pred_swapped (protein)
chain: SSSSSSSSHEIAEEMIRLAEEEGSERLLEKLLEDLEKFAKRLNDPRAEELIKELEEYLSSSSSSS
B8: il2ra_site2_2erj_normal_mot_90f6a21de4ed711cb697bb9f61d9c40c_0001_af2_000000135_0001_36_50_H_._HHH_b2_00034_0002_0000700042_0000001_0_af2pred_0001_af2pred_1 (protein)
chain: SSSDEEVKERLEELLEELVKELNLSEEAERFLRRVVEFLLREGASEEEAERIVEASAEILASSSS
B9: il2ra_site1_1z92_sap_20_mot_HHH_b1_07660_af2_000000114_0001_40_57_H_._HHH_b1_06241_0001_0000100001_0000001_0_0001_af2pred_0001_af2pred_1 (protein)
chain: SEEEELEELLRELGVPPELIKAIKKDFRHAKENGFPPEKVLRAILAALERDGDPAAEVIEELLKK
B10: il2ra_site2_2erj_normal_mot_HHH_b2_08311_000000098_0001_42_56_H_._HHH_b1_05305_af2_0001_0000500054_0000001_0 (protein)
chain: SSSSSEEIERLYELLREADELLANGNPEEAKEVLEEAEELAQELQSEEAEKIVEWLLEALSSSSS
B11: il2ra_site2_2erj_sap_25_mot_HHH_b2_04755_af2_000000255_0001_22_38_H_._HHH_b2_04266_af2_0001_0000400007_0000001_0_0001 (protein)
chain: SSSSDVFEEFAEDVERLARQLEERGNPEEARAQVESALHYAKALNSEEAEEILRELLEELSSSSS
B12: il2ra_site1_1z92_sap_11_mot_HHH_b1_02970_000000195_0001_43_56_H_._09869709d06cb525cd55f400c7a8f8a0_0001_0001_0000300025_0000001_0_0001 (protein)
chain: SSSSDRHEEWLRRLVESVIRLLERSGDPAALELLEFLLRAARIAGDEELAREIERVLEEAGSSSS
B13: il2ra_site2_3nfp_sap_16_mot_HHH_b2_05976_000000001_0001_22_38_H_._HHH_b2_06191_af2_0001_0000600026_0000001_0_0001 (protein)
chain: SSSSDKAEEYLEAAIKLLEEAREAGDEEVAREHAEAAVLMAETHGNEELLEELRKILEELESSSS
B14: il2ra_site2_3nfp_sap_18_mot_HHH_b2_02944_000000124_0001_23_39_H_._d4ecb90dab11370dfe9ea0118649096c_0001_1_af2_0001_0000300022_0000001_0_0001 (protein)
chain: SSSSSDSEEYIRAALRLAEKAIEEGDPELAEKILRMVLKAAEDNGDPIREEIEKLLEELESSSSS
B15: il2ra_site1_1z92_sap_14_mot_HHH_b2_00305_000000015_0001_21_37_H_._HHH_b1_06628_af2_0001_0000200003_0000001_0_0001 (protein)
chain: SSSSDENKERLLRFLERNIRMAIENGNERALEWALRLLELLVKLHNDPEAERVLEELEELGSSSS
B16: il2ra_site2_3nfp_normal_mot_cdc2c7e6ec3782e52408388447766025_0001_000000024_0001_37_50_H_._HHH_b2_05893_0001_0000100003_0000001_0 (protein)
chain: SSSSSYEVAELAAEAVELFQEGNPEEAREVLEEALELARELGNEWAREYIEARLLLLERASSSSS
B17: il2ra_site1_1z92_normal_mot_01209686ea234b34325f918445e6eade_0001_af2_000000154_0001_18_33_H_._HHH_b2_04498_0001_0000100007_0000001_0_af2pred_0001_af2pred (protein)
chain: SSSSSDEEERIVEELIEELGGSEEEKEAAEYDAEAARKAGFSEENIKKALEAAIRRTLELSSSSS
B18: il2ra_site2_3nfp_sap_23_mot_2fddaf487ee4b636a798e6d487813806_0001_000000215_0001_37_52_H_._HHH_b1_04954_0001_0000400025_0000001_0_0001 (protein)
chain: SSSSEVEEYVKAAILLLRRAVEEGDEELVRRLAEVARQSAEDANNPELLEEVERLVKEFEESSSS
B19: il2ra_site2_2erj_sap_15_mot_HHH_b1_00449_000000059_0001_39_52_H_._HHH_b2_03041_af2_0001_0000100003_0000001_0_0001 (protein)
chain: SSSSSDEAEKLLEEAEELLEEGDTERVEELARRVYQLAYQNNDPELAAAAIELVHAVARRSSSSS
B20: il2ra_site2_3nfp_normal_mot_HHH_b1_00660_af2_000000090_0001_40_57_H_._HHH_b1_06964_0001_0000200008_0000001_0_af2pred_0001_af2pred (protein)
chain: SSSSSEEEEEVEELLRRAEELLKRGDPEQAKEVVDKAVLIAAQLNNFELFALINELLEKILSSSS
B21: il2ra_site1_1z92_sap_11_mot_HHH_b1_07881_000000176_0001_43_56_H_._HHH_b1_05185_0001_0000200007_0000001_0_0001 (protein)
chain: SSSDTREMARLAARIASKLAAEFGLSKEQILELLKLADELTLRGVSEEEVEQILRELAHELSSSS
B22: il2ra_site1_1z92_normal_mot_HHH_b1_00368_000000203_0001_23_39_H_._HHH_b2_06643_af2_0001_0000400027_0000001_0_af2pred_0001_af2pred (protein)
chain: SSSSSELEKNLRRVARLAAELAGLDEEEREELEEIAEELARRGVDFREAFKILDEVAEELGSSSS
B23: il2ra_site1_2b5i_sap_14_mot_HHH_b2_04131_000000150_0001_1_16_H_._HHH_b1_06166_0002_0000100005_0000001_0_0001_af2pred_dldesign_0_af2pred (protein)
chain: SSSSDEIHDEVERIYKKALEAFKAGKKEEAKKLLEEALRLAKEGNLPNAVADLERLLELLSSSSS
B24: il2ra_site1_1z92_sap_28_mot_64112f081ff6e37487a4373fed56e914_0001_1_000000006_0001_18_33_H_._10fb2a14c5b7c38646833f5309af78e7_0001_af2_0001_0000100002_0000001_0 … (protein)
chain: SSSDEEELEEFAEKVVRRLVEELGLSEEEEEILREAAELMIRRGYSEKNIKHALESLARRLSSSS

Target: il2ra, P01589
Assay: yeast display titration

Apparent Kd, inactive:
B1 no binding seen
B2 no binding seen
B3 no binding seen
B4 no binding seen
B5 no binding seen
B6 no binding seen
B7 no binding seen
B8 no binding seen
B9 no binding seen
B10 no binding seen
B11 no binding seen
B12 no binding seen
B13 no binding seen
B14 no binding seen
B15 no binding seen
B16 no binding seen
B17 no binding seen
B18 no binding seen
B19 no binding seen
B20 no binding seen
B21 no binding seen
B22 no binding seen
B23 no binding seen
B24 no binding seen

Random excerpt: two records from the list
Apparent Kd, inactive:
B23 no binding seen
B16 no binding seen

Source: PMC10163288
